Results deposited as PubChem BioAssay AID686938 (Drosophila RNAi Screening Center, 2013).
In all, the deposit lists about 23,000 reagents; shown is an unselected part of those with a known target gene and a result. In the full data, 75 (0.33%) got an active call. 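Raw plate signals without normalisation; calls rest on plate z-scores that were not deposited; ratio present for only 364 wells.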 Entries without a mark were called inactive. Reagents against one gene are numbered here. Names joined by + are all predicted targets of the reagent. The record does not give: the dose of the treatment.

Test: 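Fly genes required for calcium entry once internal stores are emptied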 (primary screen)
Cell system: Drosophila S2R+ cells
Reagent: long dsRNA against Drosophila genes, about 0.25 µg dsRNA per well, roughly 10,000 cells
Duration: 5 days of knock-down before the calcium assay
Conditions: thapsigargin (SERCA pump blocker) to empty calcium stores; entry signal taken 4 min after adding it
Detection: 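Per-well fluo-4 fluorescence in two replicates, unnormalised, measured in resting cells and 4 min after store depletion by the SERCA blocker thapsigargin; ratio of the two present in few wells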
Reading the numbers: calcium entry signal: higher = stronger calcium signal after store depletion; entry to resting ratio: higher = more calcium entry relative to resting level; resting calcium signal: higher = higher resting calcium signal
Units: calcium entry signal in fluorescence units; resting calcium signal in fluorescence units
Hit rule: 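Called when the plate z-score of the entry-to-rest ratio, mean of duplicates, falls below −3; wells with low overall dye signal (Fmax z below −2) or more than five off-targets excluded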
Calls: active = strongly reduced calcium entry; inactive = no strong reduction

| Target gene | dsRNA no. | calcium entry signal, replicate 1 | calcium entry signal, replicate 2 | entry to resting ratio | resting calcium signal, replicate 1 | resting calcium signal, replicate 2 |
| --- | --- | --- | --- | --- | --- | --- |
| CG11380 | 1 | 5.19e7 | 5.85e7 | 2 | 2.64e7 | 2.82e7 |
| CG11380 | 2 | 3.56e7 | 3.20e7 | – | 1.76e7 | 1.50e7 |
| pHCl-1 (pH-sensitive chloride channel 1) | 1 | 3.39e7 | 2.67e7 | – | 1.59e7 | 1.39e7 |
| pHCl-1 (pH-sensitive chloride channel 1) | 2 | 4.48e7 | 5.85e7 | – | 2.04e7 | 2.32e7 |
| pHCl-1 (pH-sensitive chloride channel 1) | 3 | 4.26e7 | 5.18e7 | – | 1.84e7 | 1.91e7 |
| pHCl-1 (pH-sensitive chloride channel 1) | 4 | 4.29e7 | 5.56e7 | – | 1.79e7 | 1.99e7 |
| CG6693 | 1 | 4.38e7 | 4.58e7 | – | 1.81e7 | 1.89e7 |
| scf (supercoiling factor) | 1 | 3.11e7 | 4.11e7 | – | 1.56e7 | 1.80e7 |
| Atg8b (Autophagy-related 8b) | 1 | 2.53e7 | 2.84e7 | – | 2.86e7 | 1.18e7 |
| X11Lbeta | 1 | 4.45e7 | 5.54e7 | – | 2.00e7 | 2.59e7 |
| X11Lbeta | 2 | 4.30e7 | 5.78e7 | – | 1.99e7 | 2.51e7 |
| Tango11 (Transport and Golgi organization 11) | 1 | 2.20e7 | 4.56e7 | – | 1.07e7 | 1.95e7 |
| Tango11 (Transport and Golgi organization 11) | 2 | 2.07e7 | 3.76e7 | – | 9.15e6 | 1.67e7 |
| Atg3 (Autophagy-related 3) | 1 | 4.32e7 | 3.95e7 | – | 2.08e7 | 1.81e7 |
| Atg3 (Autophagy-related 3) | 2 | 3.05e7 | 3.09e7 | – | 1.82e7 | 1.49e7 |
| Mettl2 (Methyltransferase like 2) | 1 | 3.69e7 | 3.37e7 | – | 1.74e7 | 1.68e7 |
| CG9521 | 1 | 4.01e7 | 3.30e7 | – | 2.06e7 | 1.65e7 |
| RtcB (RtcB RNA ligase) | 1 | 5.12e7 | 5.03e7 | – | 2.27e7 | 1.95e7 |
| Prosalpha6 (Proteasome alpha6 subunit) | 1 | 1.88e7 | 2.15e7 | – | 1.43e7 | 1.35e7 |
| CG32147 | 1 | 4.89e7 | 3.96e7 | – | 2.37e7 | 1.95e7 |
| Corin | 1 | 5.48e7 | 1.73e7 | – | 2.44e7 | 9.75e6 |
| CG43100 (retired record) | 1 | 3.44e7 | 3.87e7 | – | 1.62e7 | 1.71e7 |
| Cnep1r2 (CTD nuclear envelope phosphatase 1 regulatory subunit 2) | 1 | 3.37e7 | 2.56e7 | – | 2.43e7 | 1.06e7 |
| cmpy (crimpy) | 1 | 2.82e7 | 5.12e7 | – | 1.30e7 | 2.17e7 |
| CG17177 | 1 | 7.82e7 | 8.41e7 | – | 3.00e7 | 2.64e7 |
| CG32706 + CG6999 | 1 | 2.26e7 | 4.10e7 | – | 1.17e7 | 1.80e7 |
| alpha-Man-Ia (alpha-Mannosidase class I a) | 1 | 3.29e7 | 3.97e7 | – | 1.58e7 | 2.02e7 |
| alpha-Man-Ia (alpha-Mannosidase class I a) | 2 | 3.86e7 | 3.73e7 | – | 1.74e7 | 1.63e7 |
| alpha-Man-Ia (alpha-Mannosidase class I a) | 3 | 3.38e7 | 3.23e7 | – | 1.74e7 | 1.59e7 |
| alpha-Man-Ia (alpha-Mannosidase class I a) | 4 | 4.33e7 | 3.55e7 | – | 1.96e7 | 1.61e7 |
| alpha-Man-Ia (alpha-Mannosidase class I a) | 5 | 6.31e7 | 3.03e7 | – | 2.84e7 | 1.26e7 |
| Cpes (Ceramide phosphoethanolamine synthase) | 1 | 1.74e7 | – | – | 1.02e7 | – |
| CG41099 | 1 | 5.40e7 | 4.28e7 | – | 2.60e7 | 1.85e7 |
| CG41099 | 2 | 5.70e7 | 4.83e7 | – | 2.56e7 | 1.97e7 |
| CG11342 | 1 | 2.07e7 | 3.26e7 | – | 9.76e6 | 1.26e7 |
| MFS12 (Major Facilitator Superfamily Transporter 12) | 1 | 3.17e7 | 2.85e7 | – | 1.36e7 | 1.38e7 |
| nSyb (neuronal Synaptobrevin) | 1 | 4.42e7 | 4.14e7 | – | 1.92e7 | 1.90e7 |
| nSyb (neuronal Synaptobrevin) | 2 | 3.12e7 | 3.40e7 | – | 1.52e7 | 1.45e7 |
| ppk25 (pickpocket 25) | 1 | 3.40e7 | 3.51e7 | – | 1.68e7 | 1.50e7 |
| CG43774 + CG43773 | 1 | 4.05e7 | 3.94e7 | – | 1.85e7 | 1.65e7 |
| CG43774 + CG43773 | 2 | 3.62e7 | 3.73e7 | – | 1.72e7 | 1.76e7 |
| CG32379 | 1 | 2.72e7 | 4.19e7 | – | 1.36e7 | 1.77e7 |
| CG6602 | 1 | 2.59e7 | 3.06e7 | – | 1.14e7 | 1.36e7 |

8 entries from above, reformatted.
Atg3 (Autophagy-related 3) #2
- calcium entry signal, replicate 1: 3.05e7
- calcium entry signal, replicate 2: 3.09e7
- resting calcium signal, replicate 1: 1.82e7
- resting calcium signal, replicate 2: 1.49e7

Mettl2 (Methyltransferase like 2)
- calcium entry signal, replicate 1: 3.69e7
- calcium entry signal, replicate 2: 3.37e7
- resting calcium signal, replicate 1: 1.74e7
- resting calcium signal, replicate 2: 1.68e7

CG9521
- calcium entry signal, replicate 1: 4.01e7
- calcium entry signal, replicate 2: 3.30e7
- resting calcium signal, replicate 1: 2.06e7
- resting calcium signal, replicate 2: 1.65e7

RtcB (RtcB RNA ligase)
- calcium entry signal, replicate 1: 5.12e7
- calcium entry signal, replicate 2: 5.03e7
- resting calcium signal, replicate 1: 2.27e7
- resting calcium signal, replicate 2: 1.95e7

Prosalpha6 (Proteasome alpha6 subunit)
- calcium entry signal, replicate 1: 1.88e7
- calcium entry signal, replicate 2: 2.15e7
- resting calcium signal, replicate 1: 1.43e7
- resting calcium signal, replicate 2: 1.35e7

CG32147
- calcium entry signal, replicate 1: 4.89e7
- calcium entry signal, replicate 2: 3.96e7
- resting calcium signal, replicate 1: 2.37e7
- resting calcium signal, replicate 2: 1.95e7

Corin
- calcium entry signal, replicate 1: 5.48e7
- calcium entry signal, replicate 2: 1.73e7
- resting calcium signal, replicate 1: 2.44e7
- resting calcium signal, replicate 2: 9.75e6

CG43100 (retired record)
- calcium entry signal, replicate 1: 3.44e7
- calcium entry signal, replicate 2: 3.87e7
- resting calcium signal, replicate 1: 1.62e7
- resting calcium signal, replicate 2: 1.71e7

The results go on.
| Target gene | dsRNA no. | calcium entry signal, replicate 1 | calcium entry signal, replicate 2 | entry to resting ratio | resting calcium signal, replicate 1 | resting calcium signal, replicate 2 |
| --- | --- | --- | --- | --- | --- | --- |
| brv2 (brivido-2) | 1 | 3.64e7 | 4.46e7 | – | 1.76e7 | 2.10e7 |
| abd-A (abdominal A) | 1 | 4.51e7 | 4.55e7 | – | 2.42e7 | 2.10e7 |
| abd-A (abdominal A) | 2 | 1.53e7 | 2.95e7 | – | 1.08e7 | 7.21e7 |
| abd-A (abdominal A) | 3 | 3.90e7 | 3.98e7 | – | 1.81e7 | 1.66e7 |
| gl (glass) | 1 | 4.55e7 | 4.78e7 | – | 5.34e7 | 2.17e7 |
| schlank | 1 | 3.40e7 | 4.22e7 | – | 1.64e7 | 1.92e7 |
| schlank | 2 | 3.33e7 | 4.05e7 | – | 1.58e7 | 1.96e7 |
| Sfxn1-3 (Sideroflexin 1/3) | 1 | 3.32e7 | 5.24e7 | – | 1.58e7 | 2.26e7 |
| CG31633 | 1 | 2.87e7 | 3.12e7 | – | 1.45e7 | 1.47e7 |
| CG17325 + CG42305 | 1 | 3.72e7 | 3.83e7 | – | 1.83e7 | 1.80e7 |
| Cyp6a19 (Cytochrome P450 6a19) | 1 | 4.25e7 | 3.78e7 | – | 1.83e7 | 1.92e7 |
| pbl (pebble) | 1 | 5.10e7 | 3.71e7 | – | 3.78e7 | 2.00e7 |
| CG5334 | 1 | 3.18e7 | 3.19e7 | – | 1.73e7 | 1.55e7 |
| FoxL1 (Forkhead box L1) | 1 | 3.75e7 | 4.33e7 | – | 1.86e7 | 2.00e7 |
| mEFTu2 (mitochondrial translation elongation factor Tu 2) | 1 | 4.37e7 | – | – | 2.34e7 | – |
| CG15711 | 1 | 5.47e7 | 4.35e7 | – | 2.24e7 | 2.16e7 |
| Npc1b (Niemann-Pick type C-1b) | 1 | 3.45e7 | 4.74e7 | – | 1.88e7 | 2.02e7 |
| sing (singles bar) | 1 | 2.93e7 | 3.32e7 | – | 1.62e7 | 1.53e7 |
| inaC (inactivation no afterpotential C) | 1 | 3.69e7 | 4.45e7 | – | 1.70e7 | 1.97e7 |
| CCT5 (Chaperonin containing TCP1 subunit 5) | 1 | 1.94e7 | 2.30e7 | – | 1.24e7 | 1.37e7 |
| CG11825 | 1 | 4.84e7 | 4.50e7 | – | 2.24e7 | 2.04e7 |
| CG13117 | 1 | 4.34e7 | 5.25e7 | – | 2.11e7 | 2.22e7 |
| Cipc (Clock interacting protein circadian) | 1 | 3.67e7 | 3.93e7 | – | 1.67e7 | 1.85e7 |
| Cipc (Clock interacting protein circadian) | 2 | 3.77e7 | 5.03e7 | – | 1.92e7 | 2.04e7 |
| OstDelta (Oligosaccharide transferase Delta subunit) | 1 | 3.49e7 | 3.46e7 | – | 1.62e7 | 1.71e7 |
| CG9702 | 1 | 4.21e7 | 4.95e7 | – | 2.17e7 | 2.00e7 |
| vsg (visgun) | 1 | 2.85e7 | 4.41e7 | – | 1.56e7 | 1.90e7 |
| Vps15 (Vacuolar protein sorting 15) | 1 | 4.41e7 | 5.06e7 | – | 2.14e7 | 2.52e7 |
| Vav (Vav guanine nucleotide exchange factor) | 1 | 5.39e7 | 6.99e7 | – | 3.01e7 | 3.39e7 |
| CSN5 (COP9 signalosome subunit 5) | 1 | 3.23e7 | 2.98e7 | – | 1.46e7 | 1.27e7 |
| CSN5 (COP9 signalosome subunit 5) | 2 | 3.34e7 | 4.58e7 | – | 1.56e7 | 2.46e7 |
| ND-B15 (NADH dehydrogenase (ubiquinone) B15 subunit) | 1 | 3.54e7 | 4.12e7 | – | 1.70e7 | 1.75e7 |
